Assay results taken from the supplement of paper PMC12067093, “Discovery and optimisation of a covalent ligand for TRIM25 and its application to targeted protein ubiquitination” (Chemical Science, 2025).
This is one part of the list.

Protein sequences, listed by entry. Tags and fused reporters are not part of them. Lines headed by an entry give the natural chain unless they say otherwise; changes in a name come on top.
UniProt Q9Y490: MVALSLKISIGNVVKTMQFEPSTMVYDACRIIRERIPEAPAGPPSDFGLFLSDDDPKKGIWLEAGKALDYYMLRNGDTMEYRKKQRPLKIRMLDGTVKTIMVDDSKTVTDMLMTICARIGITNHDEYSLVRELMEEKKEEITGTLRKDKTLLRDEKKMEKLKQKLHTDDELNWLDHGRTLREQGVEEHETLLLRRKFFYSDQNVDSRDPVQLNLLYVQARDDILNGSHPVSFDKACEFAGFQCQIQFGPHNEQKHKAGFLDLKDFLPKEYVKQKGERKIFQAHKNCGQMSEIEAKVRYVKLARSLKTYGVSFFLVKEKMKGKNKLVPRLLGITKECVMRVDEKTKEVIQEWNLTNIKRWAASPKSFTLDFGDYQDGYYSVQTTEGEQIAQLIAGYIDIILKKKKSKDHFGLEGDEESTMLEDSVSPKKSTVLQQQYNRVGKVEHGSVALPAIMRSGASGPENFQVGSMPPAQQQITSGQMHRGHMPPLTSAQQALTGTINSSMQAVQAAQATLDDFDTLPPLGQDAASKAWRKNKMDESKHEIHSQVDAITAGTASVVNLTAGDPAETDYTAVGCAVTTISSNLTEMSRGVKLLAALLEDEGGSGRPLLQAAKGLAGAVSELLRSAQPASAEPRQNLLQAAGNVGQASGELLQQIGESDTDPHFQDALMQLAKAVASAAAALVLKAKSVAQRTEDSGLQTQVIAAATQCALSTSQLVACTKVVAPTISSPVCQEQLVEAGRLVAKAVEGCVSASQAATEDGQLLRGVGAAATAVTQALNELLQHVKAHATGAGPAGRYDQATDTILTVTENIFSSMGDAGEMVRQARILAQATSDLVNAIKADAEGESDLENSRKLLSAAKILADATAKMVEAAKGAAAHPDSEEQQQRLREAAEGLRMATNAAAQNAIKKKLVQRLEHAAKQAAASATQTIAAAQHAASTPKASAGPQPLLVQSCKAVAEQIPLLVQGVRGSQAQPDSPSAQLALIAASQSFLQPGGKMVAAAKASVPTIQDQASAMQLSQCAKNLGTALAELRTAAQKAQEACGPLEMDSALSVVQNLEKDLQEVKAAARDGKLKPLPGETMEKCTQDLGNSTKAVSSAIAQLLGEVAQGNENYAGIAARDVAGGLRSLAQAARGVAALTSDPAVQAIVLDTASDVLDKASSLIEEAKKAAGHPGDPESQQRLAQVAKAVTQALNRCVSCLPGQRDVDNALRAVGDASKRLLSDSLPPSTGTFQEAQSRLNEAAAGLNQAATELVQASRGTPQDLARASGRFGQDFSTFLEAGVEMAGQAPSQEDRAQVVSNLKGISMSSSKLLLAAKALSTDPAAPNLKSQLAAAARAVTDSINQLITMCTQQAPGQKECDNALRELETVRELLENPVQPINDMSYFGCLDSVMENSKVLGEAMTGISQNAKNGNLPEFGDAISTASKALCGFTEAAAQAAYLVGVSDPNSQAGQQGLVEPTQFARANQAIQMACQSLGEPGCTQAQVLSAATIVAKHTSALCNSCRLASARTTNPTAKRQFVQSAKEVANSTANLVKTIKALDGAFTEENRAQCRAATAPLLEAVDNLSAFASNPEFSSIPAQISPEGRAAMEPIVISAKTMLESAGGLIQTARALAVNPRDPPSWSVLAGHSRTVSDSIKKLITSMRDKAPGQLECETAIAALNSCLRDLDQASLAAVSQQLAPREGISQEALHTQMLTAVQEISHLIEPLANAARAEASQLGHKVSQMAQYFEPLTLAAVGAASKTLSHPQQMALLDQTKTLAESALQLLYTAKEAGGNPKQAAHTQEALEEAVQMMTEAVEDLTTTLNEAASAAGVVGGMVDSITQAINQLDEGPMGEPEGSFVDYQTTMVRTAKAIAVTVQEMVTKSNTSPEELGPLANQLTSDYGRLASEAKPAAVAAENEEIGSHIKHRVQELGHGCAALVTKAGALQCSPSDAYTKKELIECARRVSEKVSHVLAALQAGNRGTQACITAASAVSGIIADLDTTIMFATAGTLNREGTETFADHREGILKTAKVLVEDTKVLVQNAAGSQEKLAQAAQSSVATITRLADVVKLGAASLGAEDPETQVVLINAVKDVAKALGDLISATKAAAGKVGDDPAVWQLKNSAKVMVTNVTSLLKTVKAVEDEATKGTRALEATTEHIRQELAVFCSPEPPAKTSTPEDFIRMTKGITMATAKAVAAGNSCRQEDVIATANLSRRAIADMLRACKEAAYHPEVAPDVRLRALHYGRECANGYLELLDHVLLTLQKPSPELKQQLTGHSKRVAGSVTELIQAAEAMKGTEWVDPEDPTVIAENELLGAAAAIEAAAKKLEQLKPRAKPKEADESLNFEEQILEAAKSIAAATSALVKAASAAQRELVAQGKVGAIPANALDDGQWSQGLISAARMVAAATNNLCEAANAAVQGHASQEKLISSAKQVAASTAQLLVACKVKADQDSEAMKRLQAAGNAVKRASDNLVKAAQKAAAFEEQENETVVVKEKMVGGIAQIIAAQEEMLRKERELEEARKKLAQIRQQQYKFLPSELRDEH
UniProt P11387: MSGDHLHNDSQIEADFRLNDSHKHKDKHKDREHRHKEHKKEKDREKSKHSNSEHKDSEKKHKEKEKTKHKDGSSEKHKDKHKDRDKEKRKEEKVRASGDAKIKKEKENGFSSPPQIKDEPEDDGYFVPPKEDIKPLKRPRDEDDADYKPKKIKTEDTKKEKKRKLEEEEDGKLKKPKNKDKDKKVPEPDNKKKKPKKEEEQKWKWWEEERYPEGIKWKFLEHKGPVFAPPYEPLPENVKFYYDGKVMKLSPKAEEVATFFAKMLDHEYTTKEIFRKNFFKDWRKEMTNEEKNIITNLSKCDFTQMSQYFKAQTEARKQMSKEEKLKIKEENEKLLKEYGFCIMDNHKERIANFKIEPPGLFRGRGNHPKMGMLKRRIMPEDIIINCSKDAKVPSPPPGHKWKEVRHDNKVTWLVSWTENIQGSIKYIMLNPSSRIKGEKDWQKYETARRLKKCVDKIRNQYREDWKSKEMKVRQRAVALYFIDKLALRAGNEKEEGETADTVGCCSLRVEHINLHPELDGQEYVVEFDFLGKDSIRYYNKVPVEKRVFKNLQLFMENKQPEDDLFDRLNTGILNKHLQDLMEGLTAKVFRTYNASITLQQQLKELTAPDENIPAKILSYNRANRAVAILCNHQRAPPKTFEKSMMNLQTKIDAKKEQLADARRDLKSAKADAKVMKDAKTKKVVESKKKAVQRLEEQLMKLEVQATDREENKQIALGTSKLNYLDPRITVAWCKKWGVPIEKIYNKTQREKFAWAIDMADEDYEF
UniProt Q9Y5L0: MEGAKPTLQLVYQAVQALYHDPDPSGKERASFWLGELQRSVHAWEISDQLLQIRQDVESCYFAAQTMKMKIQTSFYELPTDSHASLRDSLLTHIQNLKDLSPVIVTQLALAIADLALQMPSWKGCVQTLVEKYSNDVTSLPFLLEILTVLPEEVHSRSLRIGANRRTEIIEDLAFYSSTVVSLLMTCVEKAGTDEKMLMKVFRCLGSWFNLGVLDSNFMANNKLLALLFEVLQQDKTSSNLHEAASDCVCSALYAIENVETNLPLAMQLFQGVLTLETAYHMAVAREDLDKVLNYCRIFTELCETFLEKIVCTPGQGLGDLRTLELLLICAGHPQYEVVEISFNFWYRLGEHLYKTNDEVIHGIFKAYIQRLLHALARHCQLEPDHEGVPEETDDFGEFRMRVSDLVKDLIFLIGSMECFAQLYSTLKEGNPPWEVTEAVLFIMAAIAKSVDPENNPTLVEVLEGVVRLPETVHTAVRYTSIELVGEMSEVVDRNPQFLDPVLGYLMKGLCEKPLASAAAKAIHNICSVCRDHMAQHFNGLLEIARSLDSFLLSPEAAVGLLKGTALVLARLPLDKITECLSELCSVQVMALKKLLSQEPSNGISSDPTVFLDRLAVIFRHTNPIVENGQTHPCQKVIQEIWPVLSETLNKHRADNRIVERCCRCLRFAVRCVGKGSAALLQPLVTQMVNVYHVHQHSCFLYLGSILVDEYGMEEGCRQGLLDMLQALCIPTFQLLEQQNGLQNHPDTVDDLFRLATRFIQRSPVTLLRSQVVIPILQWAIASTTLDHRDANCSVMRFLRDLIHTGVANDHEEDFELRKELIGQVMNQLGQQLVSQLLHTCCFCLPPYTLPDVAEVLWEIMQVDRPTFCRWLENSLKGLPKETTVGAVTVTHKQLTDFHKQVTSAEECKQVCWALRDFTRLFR
UniProt Q68CZ2: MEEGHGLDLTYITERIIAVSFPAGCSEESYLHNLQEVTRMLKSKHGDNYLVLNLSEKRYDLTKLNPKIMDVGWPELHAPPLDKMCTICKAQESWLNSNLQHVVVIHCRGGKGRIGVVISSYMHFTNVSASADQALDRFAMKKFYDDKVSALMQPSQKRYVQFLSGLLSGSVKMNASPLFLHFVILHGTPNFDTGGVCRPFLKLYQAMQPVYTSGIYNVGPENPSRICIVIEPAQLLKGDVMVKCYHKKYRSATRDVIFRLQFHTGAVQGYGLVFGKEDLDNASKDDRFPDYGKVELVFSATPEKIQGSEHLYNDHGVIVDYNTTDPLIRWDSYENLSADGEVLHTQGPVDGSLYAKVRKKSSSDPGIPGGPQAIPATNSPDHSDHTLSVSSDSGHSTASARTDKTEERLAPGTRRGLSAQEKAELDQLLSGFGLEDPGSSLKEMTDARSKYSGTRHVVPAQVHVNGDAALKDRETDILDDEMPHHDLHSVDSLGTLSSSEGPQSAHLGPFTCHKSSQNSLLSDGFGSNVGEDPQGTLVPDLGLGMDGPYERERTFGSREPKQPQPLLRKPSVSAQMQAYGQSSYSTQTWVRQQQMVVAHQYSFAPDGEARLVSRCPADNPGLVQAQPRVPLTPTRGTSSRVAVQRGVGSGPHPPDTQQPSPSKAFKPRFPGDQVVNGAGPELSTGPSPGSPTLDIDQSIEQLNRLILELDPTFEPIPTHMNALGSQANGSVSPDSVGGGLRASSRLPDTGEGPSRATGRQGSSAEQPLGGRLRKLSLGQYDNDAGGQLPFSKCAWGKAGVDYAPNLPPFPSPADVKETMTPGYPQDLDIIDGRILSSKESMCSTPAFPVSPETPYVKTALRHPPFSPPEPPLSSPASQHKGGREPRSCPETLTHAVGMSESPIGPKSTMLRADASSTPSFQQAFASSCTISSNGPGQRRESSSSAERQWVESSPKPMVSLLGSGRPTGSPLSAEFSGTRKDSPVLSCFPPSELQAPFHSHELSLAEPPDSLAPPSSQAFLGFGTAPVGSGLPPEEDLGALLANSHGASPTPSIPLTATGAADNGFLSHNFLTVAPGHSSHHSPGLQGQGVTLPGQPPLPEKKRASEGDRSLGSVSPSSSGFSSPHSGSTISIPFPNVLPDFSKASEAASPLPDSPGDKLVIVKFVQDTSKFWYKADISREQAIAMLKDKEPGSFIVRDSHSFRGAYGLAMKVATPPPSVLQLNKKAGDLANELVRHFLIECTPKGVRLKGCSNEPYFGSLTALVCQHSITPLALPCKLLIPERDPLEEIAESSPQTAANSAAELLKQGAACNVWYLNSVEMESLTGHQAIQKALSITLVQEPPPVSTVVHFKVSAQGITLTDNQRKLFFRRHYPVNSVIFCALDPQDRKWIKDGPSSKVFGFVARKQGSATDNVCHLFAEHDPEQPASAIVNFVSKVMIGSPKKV
UniProt O95985: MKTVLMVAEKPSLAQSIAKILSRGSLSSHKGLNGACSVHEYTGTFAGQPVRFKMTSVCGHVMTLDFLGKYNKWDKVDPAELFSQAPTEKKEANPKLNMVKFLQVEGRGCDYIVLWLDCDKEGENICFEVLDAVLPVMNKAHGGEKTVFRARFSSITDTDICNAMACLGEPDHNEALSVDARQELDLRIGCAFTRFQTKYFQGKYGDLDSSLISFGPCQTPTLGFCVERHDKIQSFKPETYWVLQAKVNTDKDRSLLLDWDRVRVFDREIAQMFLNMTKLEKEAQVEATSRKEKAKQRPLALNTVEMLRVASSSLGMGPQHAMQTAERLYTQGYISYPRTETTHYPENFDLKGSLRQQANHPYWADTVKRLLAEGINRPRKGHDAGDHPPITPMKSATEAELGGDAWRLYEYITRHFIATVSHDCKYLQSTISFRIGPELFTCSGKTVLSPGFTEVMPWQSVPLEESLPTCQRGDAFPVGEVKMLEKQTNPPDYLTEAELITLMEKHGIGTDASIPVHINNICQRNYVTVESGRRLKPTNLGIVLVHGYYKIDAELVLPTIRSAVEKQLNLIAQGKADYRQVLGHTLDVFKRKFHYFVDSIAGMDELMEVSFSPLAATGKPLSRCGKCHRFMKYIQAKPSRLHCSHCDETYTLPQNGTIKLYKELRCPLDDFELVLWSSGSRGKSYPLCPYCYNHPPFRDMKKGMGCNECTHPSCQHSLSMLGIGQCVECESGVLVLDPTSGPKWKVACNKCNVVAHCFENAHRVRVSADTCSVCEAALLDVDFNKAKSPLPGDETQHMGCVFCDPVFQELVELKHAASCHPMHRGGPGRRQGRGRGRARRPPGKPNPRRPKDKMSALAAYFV

Compound: CC1Cc2ccccc2N1C(=O)C1CCCN(C1)C(=O)CCl (mixture of isomers) [TRIM25 ligand 11 (diastereomer mixture)]
Assay: probe-labelled cysteine peptide fold change vs DMSO (competition) (log2 fold change); higher = less target engagement (more negative = stronger competition)
Conditions: THP-1, incubation time: 4 h
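Also: competitive chemoproteomic profiling in live THP-1 cells with an iodoacetamide desthiobiotin (IA-DTB) probe, comparing probe-labelled peptide intensities in compound-treated cells against DMSO-treated controls.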

| Target | probe-labelled cysteine peptide fold change (10 µM) | probe-labelled cysteine peptide fold change (50 µM) |
| --- | --- | --- |
| TOR1AIP1_Q5JTV8_424_CLSEQIADAYSSFR (UniProt Q5JTV8) | 0.0577 | 0.264 |
| TLN1_Q9Y490_2243_ECANGYLELLDHVLLTLQK (UniProt Q9Y490) | -0.0271 | 0.00833 |
| TOP1_P11387_505_EEGETADTVGCCSLR (UniProt P11387) | -0.199 | 0.00926 |
| TM9SF3_Q9HD45_108_DDVMPATYCEIDLDK (UniProt Q9HD45) | 0.319 | 0.245 |
| TNPO3_Q9Y5L0_303_IFTELCETFLEK (UniProt Q9Y5L0) | 0.0814 | 0.0392 |
| TP53BP1_Q12888_101_VADPVDSSNLDTCGSISQVIEQLPQPNR (UniProt Q12888) | 0.279 | -0.45 |
| TNPO2_O14787_805_LGYVCPQEVAPMLQQFIRPWCTSLR (UniProt O14787) | -0.219 | 0.17 |
| TNS3_Q68CZ2_107_AQESWLNSNLQHVVVIHCR (UniProt Q68CZ2) | 0.0474 | 0.311 |
| TMEM209_Q96SK2_295_KFQYQLACR (UniProt Q96SK2) | -0.194 | -0.278 |
| TONSL_Q96HA7_1345_RLCAEDRDALR (UniProt Q96HA7) | -0.0462 | -0.157 |
| TOR2A_Q5JU69_35+43_CTLGAFCECDFRPDLPGLECDLAQHLAGQHLAK (UniProt Q5JU69) | 0.0441 | 0.314 |
| TOP3B_O95985_118_GCDYIVLWLDCDK (UniProt O95985) | 0.298 | 0.178 |
| TLN1_Q9Y490_1661_APGQLECETAIAALNSCLR (UniProt Q9Y490) | 0.0449 | -0.0898 |
| TMEM94_Q12767_381_CIWGHFLR (UniProt Q12767) | -0.00858 | – |
